PubChem BioAssay AID1224827 | NIAID – 2016

Purpose: 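Retest primary hits on a TNF reporter with six siRNAs per gene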 (follow-up of hits)
Cell system: RAW264.7 G9 mouse macrophage reporter clone
Reagent: single siRNA against mouse genes, 100 nM siRNA
Timing: siRNA for 2 days, then LPS about 16 h
Treatment: bacterial lipopolysaccharide (LPS), 10 ng/ml, cells fixed after overnight (about 16 h) stimulation
Measured: 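Imaged nuclear TNF reporter intensity, background removed, scaled per plate and to non-targeting control wells, as z-scores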
Reading the numbers: TNF reporter z-score, mean: higher = stronger Tnf promoter reporter signal
Active means: 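Active siRNA: replicate-mean z-score of 2 or more, or -2 or less; no calls for control wells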
The whole screen tested about 3,800 reagents; this is an unselected part. In the full data, about 2,200 (57%) were called active. 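Active means a strong reporter change in either direction; calls are per siRNA, not per gene; qiagen siRNAs gave weaker effects.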 The numbers tell different reagents against one gene apart. Further read-outs or replicates are left out here.

A430093F15Rik #1 | TNF reporter z-score, mean = 1.11; outcome = inactive
A430093F15Rik #2 | TNF reporter z-score, mean = -0.248; outcome = inactive
A430093F15Rik #3 | TNF reporter z-score, mean = -4.82; outcome = active
A430093F15Rik #4 | TNF reporter z-score, mean = 1.38; outcome = inactive
A430093F15Rik #5 | TNF reporter z-score, mean = 0.657; outcome = inactive
A430093F15Rik #6 | TNF reporter z-score, mean = 0.439; outcome = inactive
Alpl #1 | TNF reporter z-score, mean = 0.751; outcome = inactive
Alpl #2 | TNF reporter z-score, mean = -0.488; outcome = inactive
Alpl #3 | TNF reporter z-score, mean = -3.3; outcome = active
Alpl #4 | TNF reporter z-score, mean = 2.93; outcome = active
Alpl #5 | TNF reporter z-score, mean = 1.21; outcome = inactive
Alpl #6 | TNF reporter z-score, mean = 1.8; outcome = inactive

Next part, starting with the last 5 of the part before.
Alpl #2 | TNF reporter z-score, mean = -0.488; outcome = inactive
Alpl #3 | TNF reporter z-score, mean = -3.3; outcome = active
Alpl #4 | TNF reporter z-score, mean = 2.93; outcome = active
Alpl #5 | TNF reporter z-score, mean = 1.21; outcome = inactive
Alpl #6 | TNF reporter z-score, mean = 1.8; outcome = inactive
Psmd4 #1 | TNF reporter z-score, mean = -2.6; outcome = active
Psmd4 #2 | TNF reporter z-score, mean = -2.76; outcome = active
Psmd4 #3 | TNF reporter z-score, mean = -4.6; outcome = active
Psmd4 #4 | TNF reporter z-score, mean = 12.9; outcome = active
Psmd4 #5 | TNF reporter z-score, mean = 11.9; outcome = active
Psmd4 #6 | TNF reporter z-score, mean = 3.13; outcome = active
Rps6kb1 #1 | TNF reporter z-score, mean = -2.51; outcome = active
Rps6kb1 #2 | TNF reporter z-score, mean = -3.35; outcome = active
Rps6kb1 #3 | TNF reporter z-score, mean = -5.02; outcome = active
Rps6kb1 #4 | TNF reporter z-score, mean = 6.08; outcome = active
Rps6kb1 #5 | TNF reporter z-score, mean = 0.433; outcome = inactive
Rps6kb1 #6 | TNF reporter z-score, mean = -0.0889; outcome = inactive
Trhr #1 | TNF reporter z-score, mean = -0.219; outcome = inactive
Trhr #2 | TNF reporter z-score, mean = -5.56; outcome = active
Trhr #3 | TNF reporter z-score, mean = -5.94; outcome = active
Trhr #4 | TNF reporter z-score, mean = 1.83; outcome = inactive
Trhr #5 | TNF reporter z-score, mean = -1.06; outcome = inactive
Trhr #6 | TNF reporter z-score, mean = -2.25; outcome = active
Orc5 #1 | TNF reporter z-score, mean = -3.46; outcome = active
Orc5 #2 | TNF reporter z-score, mean = -3.44; outcome = active
Orc5 #3 | TNF reporter z-score, mean = -4.46; outcome = active
Orc5 #4 | TNF reporter z-score, mean = 2.71; outcome = active
Orc5 #5 | TNF reporter z-score, mean = 2.02; outcome = active
Orc5 #6 | TNF reporter z-score, mean = -0.623; outcome = inactive
